Test results from article PMC7767108.
No constants are given. Whether binding was seen depends on the method and setting. Binding seen in cells or lysates may run through a third protein. Some results given as binding are weak or reduced against the parent protein; the word gives no strength.

Chains of the proteins cited; added tags and fusions are not shown. Residues count along the entry.
UniProt P11021, residues 19-654: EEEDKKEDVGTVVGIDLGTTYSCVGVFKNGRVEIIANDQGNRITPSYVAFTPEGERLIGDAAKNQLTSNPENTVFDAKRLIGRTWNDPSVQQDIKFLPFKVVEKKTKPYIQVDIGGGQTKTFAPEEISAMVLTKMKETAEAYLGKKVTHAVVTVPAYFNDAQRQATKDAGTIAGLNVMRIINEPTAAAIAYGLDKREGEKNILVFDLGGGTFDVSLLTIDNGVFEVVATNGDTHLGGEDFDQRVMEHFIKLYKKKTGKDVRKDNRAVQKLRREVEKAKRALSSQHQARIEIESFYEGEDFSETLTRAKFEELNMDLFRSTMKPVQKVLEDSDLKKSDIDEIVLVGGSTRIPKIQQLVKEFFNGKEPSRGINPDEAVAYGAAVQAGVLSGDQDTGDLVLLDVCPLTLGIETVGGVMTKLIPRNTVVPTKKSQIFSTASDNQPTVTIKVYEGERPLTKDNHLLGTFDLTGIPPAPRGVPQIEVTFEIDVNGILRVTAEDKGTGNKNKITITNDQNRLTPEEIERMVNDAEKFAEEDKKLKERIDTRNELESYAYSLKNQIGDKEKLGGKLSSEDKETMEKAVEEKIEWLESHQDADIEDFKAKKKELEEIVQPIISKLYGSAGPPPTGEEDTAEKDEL
UniProt P17936, residues 28-291: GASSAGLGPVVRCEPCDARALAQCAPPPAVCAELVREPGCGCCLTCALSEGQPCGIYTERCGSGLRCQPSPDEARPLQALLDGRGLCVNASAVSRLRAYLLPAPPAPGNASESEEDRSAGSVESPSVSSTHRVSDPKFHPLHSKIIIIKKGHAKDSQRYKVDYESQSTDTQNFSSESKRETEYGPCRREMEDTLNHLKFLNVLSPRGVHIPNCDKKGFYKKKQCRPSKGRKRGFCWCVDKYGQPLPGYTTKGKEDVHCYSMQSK

Target: glucose-regulated protein 78 (GRP78) (human (endogenous in Hs578T)) (UniProt P11021)
Assay: co-IP; Hs578T cell extract (500 ug lysate) incubated overnight with 2 ug GRP78 antibody at 4 °C, anti-mouse IgG, Protein A/G PLUS-Agarose, washed 5x with lysis buffer; blotted for GRP78 and IGFBP-3; control IgG in parallel; endogenous proteins at basal levels

Substance: insulin-like growth factor binding protein 3 (IGFBP-3) (from UniProt P17936 28-291)
- binding: binds
